This is an account of results in publication PMC3962438.

Amino acid sequences for entries named in this document (tags omitted). A change or cut given only in a name is not applied to a line headed by its entry.
UniProt O95684: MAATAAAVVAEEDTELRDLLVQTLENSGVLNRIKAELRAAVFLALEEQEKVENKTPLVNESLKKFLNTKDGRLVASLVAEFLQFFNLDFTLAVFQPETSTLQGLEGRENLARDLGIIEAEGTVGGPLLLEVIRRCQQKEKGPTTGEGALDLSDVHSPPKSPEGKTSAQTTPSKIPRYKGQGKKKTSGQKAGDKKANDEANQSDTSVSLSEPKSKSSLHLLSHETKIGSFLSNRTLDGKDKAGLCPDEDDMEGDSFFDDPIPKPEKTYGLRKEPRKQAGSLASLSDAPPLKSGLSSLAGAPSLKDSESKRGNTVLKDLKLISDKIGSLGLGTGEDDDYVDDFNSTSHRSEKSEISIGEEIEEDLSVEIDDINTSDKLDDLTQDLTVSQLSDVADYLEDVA
UniProt P11362: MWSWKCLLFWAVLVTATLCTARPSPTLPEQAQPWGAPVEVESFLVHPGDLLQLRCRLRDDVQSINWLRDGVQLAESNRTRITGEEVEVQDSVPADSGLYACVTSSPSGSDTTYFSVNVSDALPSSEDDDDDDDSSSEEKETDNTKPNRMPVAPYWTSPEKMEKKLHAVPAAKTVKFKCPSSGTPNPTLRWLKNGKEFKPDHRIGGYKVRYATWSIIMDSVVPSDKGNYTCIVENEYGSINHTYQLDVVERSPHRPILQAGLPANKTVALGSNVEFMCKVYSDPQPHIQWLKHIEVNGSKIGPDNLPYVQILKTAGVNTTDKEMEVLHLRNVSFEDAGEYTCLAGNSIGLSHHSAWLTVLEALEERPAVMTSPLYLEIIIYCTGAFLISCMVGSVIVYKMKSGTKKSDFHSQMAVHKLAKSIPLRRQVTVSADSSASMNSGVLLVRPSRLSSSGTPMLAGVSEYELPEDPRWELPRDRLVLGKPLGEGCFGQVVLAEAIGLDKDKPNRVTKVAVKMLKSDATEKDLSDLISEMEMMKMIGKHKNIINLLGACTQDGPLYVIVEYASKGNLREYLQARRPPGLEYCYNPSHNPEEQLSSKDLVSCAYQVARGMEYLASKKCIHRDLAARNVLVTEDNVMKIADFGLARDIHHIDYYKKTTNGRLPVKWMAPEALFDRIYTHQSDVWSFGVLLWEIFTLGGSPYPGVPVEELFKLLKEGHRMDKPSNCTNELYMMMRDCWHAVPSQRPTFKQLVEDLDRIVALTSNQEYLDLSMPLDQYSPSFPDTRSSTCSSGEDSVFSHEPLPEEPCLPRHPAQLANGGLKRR

The target of the test is FOP-FGFR1 (wild-type MPN fusion), Myc-tagged and GFP-tagged copies, in vitro translated (human) (UniProt O95684+P11362). Nature of the test: co-IP; constructs in vitro translated in reticulocyte lysate; GFP-tagged FOP-FGFR1 constructs immunoprecipitated, Myc-tagged FOP-FGFR1 constructs assessed in the IP.

These are yes or no findings as the source states them, for the method shown. In cells and extracts the contact can be indirect. Some entries that bind do so weakly or less than the wild type.

In the case of “FOP-FGFR1 (wild-type MPN fusion), Myc-tagged and GFP-tagged copies, in vitro translated (from UniProt O95684 1-173; P11362 429-822)”, the binding result was “binds”.
